{
  "sequences": {"note": "Protein sequences, listed by entry. Tags and fused reporters are not part of them. Residues count along the entry.", "UniProt P08581, residues 25-1390": "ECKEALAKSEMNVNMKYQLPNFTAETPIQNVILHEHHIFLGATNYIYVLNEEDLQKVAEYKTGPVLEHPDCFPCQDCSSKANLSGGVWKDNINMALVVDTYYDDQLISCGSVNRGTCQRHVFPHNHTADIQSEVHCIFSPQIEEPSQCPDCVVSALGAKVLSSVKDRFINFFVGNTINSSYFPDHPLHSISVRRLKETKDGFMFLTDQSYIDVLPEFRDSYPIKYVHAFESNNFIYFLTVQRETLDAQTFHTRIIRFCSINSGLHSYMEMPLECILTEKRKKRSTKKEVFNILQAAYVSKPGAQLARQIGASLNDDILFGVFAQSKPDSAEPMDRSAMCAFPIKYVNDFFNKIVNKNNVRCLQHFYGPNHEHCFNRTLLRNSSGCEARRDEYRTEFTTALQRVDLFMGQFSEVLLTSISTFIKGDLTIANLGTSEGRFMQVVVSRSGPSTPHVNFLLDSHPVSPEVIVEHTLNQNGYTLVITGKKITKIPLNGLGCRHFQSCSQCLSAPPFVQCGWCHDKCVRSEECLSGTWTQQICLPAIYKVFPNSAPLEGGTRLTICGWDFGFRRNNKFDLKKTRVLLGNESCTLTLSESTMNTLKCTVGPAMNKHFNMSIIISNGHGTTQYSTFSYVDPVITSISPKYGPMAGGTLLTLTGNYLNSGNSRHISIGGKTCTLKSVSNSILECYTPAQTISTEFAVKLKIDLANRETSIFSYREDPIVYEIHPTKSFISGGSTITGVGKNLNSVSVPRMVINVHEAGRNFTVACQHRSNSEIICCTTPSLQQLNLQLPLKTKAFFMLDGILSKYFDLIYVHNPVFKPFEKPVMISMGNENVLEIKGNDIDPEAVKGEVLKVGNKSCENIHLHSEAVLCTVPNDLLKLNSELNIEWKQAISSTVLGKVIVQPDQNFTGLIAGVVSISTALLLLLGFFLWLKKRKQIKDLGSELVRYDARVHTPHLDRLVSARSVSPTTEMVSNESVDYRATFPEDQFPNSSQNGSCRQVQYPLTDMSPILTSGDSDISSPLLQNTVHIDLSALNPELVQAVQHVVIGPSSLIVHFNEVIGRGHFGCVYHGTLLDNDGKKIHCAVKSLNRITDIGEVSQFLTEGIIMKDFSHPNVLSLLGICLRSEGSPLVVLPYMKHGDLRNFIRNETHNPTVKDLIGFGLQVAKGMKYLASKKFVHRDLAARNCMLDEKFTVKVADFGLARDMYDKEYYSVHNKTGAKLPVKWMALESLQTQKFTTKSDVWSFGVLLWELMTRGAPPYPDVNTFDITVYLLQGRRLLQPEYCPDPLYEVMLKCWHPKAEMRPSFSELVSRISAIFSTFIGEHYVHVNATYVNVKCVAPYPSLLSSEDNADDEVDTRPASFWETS"},
  "source": "paper PMC11176650",
  "molecular_target": "MET (UniProt P08581)",
  "assay": "co-IP; cells, precipitated protein and conditions not stated in the text shown",
  "note": "No constants are given. Whether binding was seen depends on the method and setting. In cells and extracts the contact can be indirect. Some results given as binding are weak or reduced against the parent protein; the word gives no strength.",
  "data": [
    {"binder": "myelin protein zero-like protein 1 (MPZL1) (protein, UniProt O95297 36-269) SALEVYTPKEIFVANGTQGKLTCKFKSTSTTGGLTSVSWSFQPEGADTTVSFFHYSQGQVYLGNYPPFKDRISWAGDLDKKDASINIENMQFIHNGTYICDVKNPPDIVVQPGHIRLYVVEKENLPVFPVWVVVGIVTAVVLGLTLLISMILAVLYRRKNSKRDYTGCSTSESLSPVKQAPRKSPSDTEGLVKSLPSGSHQGPVIYAQLDHSGGHHSDKINKSESVVYADIRKN", "values": [
      {"measurement": "binding", "result": "binds"}
    ]}
  ]
}
